Results deposited as PubChem BioAssay AID1259405 (NCATS, 2018)

Aim: 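Knock-downs that lift recombinant protein yield in hamster ovary cells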 (primary screen)
System: Chinese hamster CHO-K1 ovary cells with stable secreted eGFP expression
Reagent: single siRNA against mouse genes, 0.8 pmol siRNA per well (2 µl of 400 nM stock)
Time to read-out: 3 days
Detection: 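Per-well intracellular GFP measured by laser scanning cytometry, plus viability from ATP luminescence, each relative to plate median of non-targeting control wells, in %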
Reading the numbers: GFP, % of control: higher = more GFP per well, higher productivity; viability (ATP), % of control: higher = more viable cells (more ATP)
Call rule: 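Called active when intracellular GFP, relative to negative control, is at or above 120%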
Here is an unselected part of about 50,000 reagents tested. In the full data, about 4,000 (8%) were called active. 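Mouse siRNA library applied to hamster cells; one well for each siRNA.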 Reagents against one gene are numbered here.

gene | reagent no. | GFP, % of control | viability (ATP), % of control | Outcome
Cpxm1 | 1 | 58.1 | 52.9 | inactive
Cpxm1 | 2 | 53.9 | 42.1 | inactive
Cpxm1 | 3 | 43.9 | 54.1 | inactive
Lig3 | 1 | 77.5 | 81.2 | inactive
Lig3 | 2 | 31.9 | 34.6 | inactive
Lig3 | 3 | 70.8 | 73.4 | inactive
Vmn1r10 | 1 | 111 | 81.8 | inactive
Vmn1r10 | 2 | 55.9 | 46.3 | inactive
Vmn1r10 | 3 | 61.9 | 58.1 | inactive
Aldh8a1 | 1 | 164 | 83.7 | active
Aldh8a1 | 2 | 101 | 67.6 | inactive
Aldh8a1 | 3 | 92.3 | 75.1 | inactive
Nudt8 | 1 | 95.1 | 79 | inactive
Nudt8 | 2 | 57.8 | 78.6 | inactive
Nudt8 | 3 | 109 | 91.6 | inactive
Lrrfip1 | 1 | 58.2 | 104 | inactive
Lrrfip1 | 2 | 88.3 | 79.6 | inactive
Lrrfip1 | 3 | 84.1 | 91.2 | inactive
Ints11 | 1 | 77.9 | 78.9 | inactive
Ints11 | 2 | 63.3 | 77.4 | inactive
Ints11 | 3 | 54.1 | 73.4 | inactive
Rnf19a | 1 | 117 | 68.7 | inactive
Rnf19a | 2 | 76 | 85.3 | inactive
Rnf19a | 3 | 75.3 | 77.6 | inactive
Lingo1 | 1 | 149 | 97.8 | active
Lingo1 | 2 | 97.8 | 68.4 | inactive
Lingo1 | 3 | 150 | 114 | active
Ly9 | 1 | 59.2 | 60.5 | inactive
Ly9 | 2 | 79.7 | 71 | inactive
Ly9 | 3 | 57.7 | 69.7 | inactive
Zfp60 | 1 | 73.6 | 74.4 | inactive
Zfp60 | 2 | 50 | 68.2 | inactive
Zfp60 | 3 | 82.5 | 91.6 | inactive
Zfp60 | 4 | 96 | 99 | inactive
Zfp60 | 5 | 74.8 | 80.5 | inactive
Zfp60 | 6 | 72.3 | 90.6 | inactive
Fbf1 | 1 | 66.7 | 68.8 | inactive
Fbf1 | 2 | 93 | 85.6 | inactive
Fbf1 | 3 | 92.3 | 65.2 | inactive
Col8a1 | 1 | 112 | 69 | inactive
Col8a1 | 2 | 91.3 | 83 | inactive
Bcap29 | 1 | 70.6 | 71.4 | inactive
Bcap29 | 2 | 108 | 65.7 | inactive
Bcap29 | 3 | 92.7 | 73.6 | inactive
D630004N19Rik | 1 | 53.4 | 62.3 | inactive
D630004N19Rik | 2 | 116 | 71.1 | inactive
D630004N19Rik | 3 | 94.8 | 88.5 | inactive
Trem1 | 1 | 67.2 | 68.7 | inactive
Trem1 | 2 | 46.1 | 57.3 | inactive
Trem1 | 3 | 58.6 | 74.3 | inactive
Fntb | 1 | 110 | 97.7 | inactive
Fntb | 2 | 71.3 | 205 | inactive
Fntb | 3 | 121 | 110 | active
Ncoa1 | 1 | 65.5 | 75 | inactive
Ncoa1 | 2 | 62.5 | 73.2 | inactive
Ncoa1 | 3 | 116 | 85.9 | inactive
Magea7-ps | 1 | 38.2 | 31.6 | inactive
Magea7-ps | 2 | 54.3 | 37.7 | inactive
Magea7-ps | 3 | 98.7 | 79.5 | inactive
Mapk3 | 1 | 85.9 | 96.1 | inactive
C1qtnf4 | 1 | 63.8 | 78.4 | inactive
C1qtnf4 | 2 | 78.3 | 71.2 | inactive
C1qtnf4 | 3 | 187 | 140 | active
Gata3 | 1 | 72.6 | 52.7 | inactive
Gata3 | 2 | 92.3 | 78.8 | inactive
Gata3 | 3 | 96 | 82.9 | inactive
Rcan1 | 1 | 53.9 | 55.5 | inactive
Rcan1 | 2 | 65.2 | 47.5 | inactive
Rcan1 | 3 | 74.3 | 84.5 | inactive
Tmem130 | 1 | 51.3 | 71.1 | inactive
Tmem130 | 2 | 64.4 | 74.1 | inactive
Tmem130 | 3 | 163 | 147 | active
Cebpg | 1 | 32.9 | 65 | inactive
Cebpg | 2 | 46.4 | 50.2 | inactive
Cebpg | 3 | 104 | 105 | inactive
Chrna6 | 1 | 93.7 | 115 | inactive
Chrna6 | 2 | 95.3 | 77.3 | inactive
Chrna6 | 3 | 84.6 | 63.6 | inactive
Sh3bp1 | 1 | 92.9 | 80.1 | inactive
Sh3bp1 | 2 | 101 | 82 | inactive
Sh3bp1 | 3 | 44 | 40.2 | inactive
Trpv1 | 1 | 45.6 | 45.5 | inactive
Trpv1 | 2 | 13.1 | 18.3 | inactive
Trpv1 | 3 | 105 | 144 | inactive
